This assay has as its system LNCaP. In words: Growth inhibition of human LNCaP cells assessed as cell viability measured after 4 days in presence of R1881 by WST-8 assay. Format: functional, cell-based. The conditions noted are these: 96 h. A digest of the protocol: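 LNCaP and VCaP cells exposed to compounds for 4 days in charcoal-stripped medium containing 0.1 nM R1881; viability read by WST-8 assay.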

In ChEMBL document CHEMBL4842367, “Strategies toward Discovery of Potent and Orally Bioavailable Proteolysis Targeting Chimera Degraders of Androgen Receptor for the Treatment of Prostate Cancer” (J Med Chem, 2021) one finds IC50 data, which are given here for one molecule.

With `CNC(=O)c1ccc(N2C(=S)N(c3ccc(C#N)c(C(F)(F)F)c3)C(=O)C2(C)C)cc1F` [ENZALUTAMIDE], the IC50 (usually the concentration needed to halve the response being measured) was 133 nM.
